{"source": "PubChem BioAssay AID504786 (Drosophila RNAi Screening Center, 2011)", "screen": "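Fly genes required for HIF-dependent transcription when hypoxia is mimicked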 (primary screen)", "cells": "Drosophila S2 cells with a stable HIF luciferase reporter", "reagents": "long dsRNA against Drosophila genes, about 0.2 µg dsRNA per well of a 384-well plate", "time to read-out": "three days of knock-down, then 20 h of DFO before reading", "treatment": "desferrioxamine (DFO) at 100 µM, an iron chelator that mimics hypoxia, for 20 h", "read-out": "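HIF reporter luminescence in cells given 100 µM DFO for 20 h, using the mouse ldh-a hypoxia-response element, scored as per-plate z-scores; higher means greater loss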", "scale": "z-score: higher = stronger loss of HIF reporter signal", "note": "In all, the deposit lists about 21,000 reagents; shown is an unselected part of those that have a named target and a result. 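Primary screen; positive scores mean lost reporter signal, so the sign may be inverted from the usual convention.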 The numbers tell different reagents against one gene apart. Further read-outs or replicates are left out here."}
{"target": "Hmr", "reagent": 1, "z-score, replicate 1": -0.4}
{"target": "Acp62F", "reagent": 1, "z-score, replicate 1": -0.3}
{"target": "AstC", "reagent": 1, "z-score, replicate 1": -0.3}
{"target": "emei", "reagent": 1, "z-score, replicate 1": -0.2}
{"target": "CG14883", "reagent": 1, "z-score, replicate 1": -0.1}
{"target": "CG11374", "reagent": 1, "z-score, replicate 1": -0.2}
{"target": "SdhB", "reagent": 1, "z-score, replicate 1": -0.2}
{"target": "CG14926", "reagent": 1, "z-score, replicate 1": -0.3}
{"target": "smg", "reagent": 1, "z-score, replicate 1": -0.1}
{"target": "CG13077", "reagent": 1, "z-score, replicate 1": -0.4}
{"target": "bt", "reagent": 1, "z-score, replicate 1": -0.2}
{"target": "bt", "reagent": 2, "z-score, replicate 1": -0.2}

As entered above.
CG14926, z-score, replicate 1 → -0.3
Under “z-score, replicate 1”, bt #1 shows -0.2
Hmr, z-score, replicate 1 → -0.4
Result for CG13077 in “z-score, replicate 1”: -0.4

More records follow:
{"target": "PGAP5", "reagent": 1, "z-score, replicate 1": -0.3}
{"target": "sicily", "reagent": 1, "z-score, replicate 1": -0.2}
{"target": "faf", "reagent": 1, "z-score, replicate 1": -0.5}
{"target": "raskol", "reagent": 1, "z-score, replicate 1": -0.3}
{"target": "raskol", "reagent": 2, "z-score, replicate 1": -0.4}
{"target": "raskol", "reagent": 3, "z-score, replicate 1": -0.5}
{"target": "raskol", "reagent": 4, "z-score, replicate 1": 2.8}
{"target": "Mgat3", "reagent": 1, "z-score, replicate 1": 0}
{"target": "gzl", "reagent": 1, "z-score, replicate 1": -0.4}
{"target": "cbc", "reagent": 1, "z-score, replicate 1": 0.3}
{"target": "CycG", "reagent": 1, "z-score, replicate 1": 0}
{"target": "CG10132", "reagent": 1, "z-score, replicate 1": -0.2}
{"target": "CG33160", "reagent": 1, "z-score, replicate 1": -0.5}
{"target": "CG10185", "reagent": 1, "z-score, replicate 1": -0.4}
{"target": "CG33120", "reagent": 1, "z-score, replicate 1": -0.3}
